Experimental data as given in patent publication US20050238685A1, “Method of binding a compound to a surface” (priority 2002, published 2005).
No constants are given. Whether binding was seen depends on the method and setting. Some results given as binding are weak or reduced against the parent protein; the word gives no strength.

How the values were obtained:
[1] = target: T1, SC3 hydrophobin of Schizophyllum commune (Schizophyllum commune) (UniProt P16933); assay: enzyme on SC3-coated TEFLON, rinsed; activity by spectrophotometry, constant after removal of the surface
T1 sequence (looked up): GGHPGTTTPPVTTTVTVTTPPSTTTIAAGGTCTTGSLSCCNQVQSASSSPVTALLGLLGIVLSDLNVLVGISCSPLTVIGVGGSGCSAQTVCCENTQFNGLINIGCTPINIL

[2] = target: T1, SC3 hydrophobin of Schizophyllum commune (Schizophyllum commune); assay: enzyme on SC3-coated oil droplets, washed five times by centrifugation; substrate conversion
[3] = target: T2, SC4 hydrophobin of Schizophyllum commune (Schizophyllum commune) (UniProt P16934); assay: enzyme on hydrophobin-coated sheets, washed; chromogenic assay
T2 sequence: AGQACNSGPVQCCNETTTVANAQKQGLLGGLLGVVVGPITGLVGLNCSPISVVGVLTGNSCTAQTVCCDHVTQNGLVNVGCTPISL

[4] = target: T1, SC3 hydrophobin of Schizophyllum commune (Schizophyllum commune); assay: as above

Measured: binding

B1: porcine liver esterase (enzyme, UniProt Q29550 19-566, looked up)
chain: GQPASPPVVDTAQGRVLGKYVSLEGLAQPVAVFLGVPFAKPPLGSLRFAPPQPAEPWSFVKNTTSYPPMCCQDPVVEQMTSDLFTNGKERLTLEFSEDCLYLNIYTPADLTKRGRLPVMVWIHGGGLVLGGAPMYDGVVLAAHENVVVVAIQYRLGIWGFFSTGDEHSRGNWGHLDQVAALHWVQENIANFGGDPGSVTIFGESAGGESVSVLVLSPLAKNLFHRAISESGVALTVALVRKDMKAAAKQIAVLAGCKTTTSAVFVHCLRQKSEDELLDLTLKMKFLTLDFHGDQRESHPFLPTVVDGVLLPKMPEEILAEKDFNTVPYIVGINKQEFGWLLPTMMGFPLSEGKLDQKTATSLLWKSYPIANIPEELTPVATDKYLGGTDDPVKKKDLFLDLMGDVVFGVPSVTVARQHRDAGAPTYMYEFQYRPSFSSDKKPKTVIGDHGDEIFSVFGFPLLKGDAPEEEVSLSKTVMKFWANFARSGNPNGEGLPHWPMYDQEEGYLQIGVNTQAAKRLKGEEVAFWNDLLSKEAAKKPPKIKHAEL
binds: all assays above
